These are yes or no findings as the source states them, for the method shown. In cells and extracts the contact can be indirect. Some entries that bind do so weakly or less than the wild type.

Amino acid sequences for entries named in this document (tags omitted).
UniProt Q92793: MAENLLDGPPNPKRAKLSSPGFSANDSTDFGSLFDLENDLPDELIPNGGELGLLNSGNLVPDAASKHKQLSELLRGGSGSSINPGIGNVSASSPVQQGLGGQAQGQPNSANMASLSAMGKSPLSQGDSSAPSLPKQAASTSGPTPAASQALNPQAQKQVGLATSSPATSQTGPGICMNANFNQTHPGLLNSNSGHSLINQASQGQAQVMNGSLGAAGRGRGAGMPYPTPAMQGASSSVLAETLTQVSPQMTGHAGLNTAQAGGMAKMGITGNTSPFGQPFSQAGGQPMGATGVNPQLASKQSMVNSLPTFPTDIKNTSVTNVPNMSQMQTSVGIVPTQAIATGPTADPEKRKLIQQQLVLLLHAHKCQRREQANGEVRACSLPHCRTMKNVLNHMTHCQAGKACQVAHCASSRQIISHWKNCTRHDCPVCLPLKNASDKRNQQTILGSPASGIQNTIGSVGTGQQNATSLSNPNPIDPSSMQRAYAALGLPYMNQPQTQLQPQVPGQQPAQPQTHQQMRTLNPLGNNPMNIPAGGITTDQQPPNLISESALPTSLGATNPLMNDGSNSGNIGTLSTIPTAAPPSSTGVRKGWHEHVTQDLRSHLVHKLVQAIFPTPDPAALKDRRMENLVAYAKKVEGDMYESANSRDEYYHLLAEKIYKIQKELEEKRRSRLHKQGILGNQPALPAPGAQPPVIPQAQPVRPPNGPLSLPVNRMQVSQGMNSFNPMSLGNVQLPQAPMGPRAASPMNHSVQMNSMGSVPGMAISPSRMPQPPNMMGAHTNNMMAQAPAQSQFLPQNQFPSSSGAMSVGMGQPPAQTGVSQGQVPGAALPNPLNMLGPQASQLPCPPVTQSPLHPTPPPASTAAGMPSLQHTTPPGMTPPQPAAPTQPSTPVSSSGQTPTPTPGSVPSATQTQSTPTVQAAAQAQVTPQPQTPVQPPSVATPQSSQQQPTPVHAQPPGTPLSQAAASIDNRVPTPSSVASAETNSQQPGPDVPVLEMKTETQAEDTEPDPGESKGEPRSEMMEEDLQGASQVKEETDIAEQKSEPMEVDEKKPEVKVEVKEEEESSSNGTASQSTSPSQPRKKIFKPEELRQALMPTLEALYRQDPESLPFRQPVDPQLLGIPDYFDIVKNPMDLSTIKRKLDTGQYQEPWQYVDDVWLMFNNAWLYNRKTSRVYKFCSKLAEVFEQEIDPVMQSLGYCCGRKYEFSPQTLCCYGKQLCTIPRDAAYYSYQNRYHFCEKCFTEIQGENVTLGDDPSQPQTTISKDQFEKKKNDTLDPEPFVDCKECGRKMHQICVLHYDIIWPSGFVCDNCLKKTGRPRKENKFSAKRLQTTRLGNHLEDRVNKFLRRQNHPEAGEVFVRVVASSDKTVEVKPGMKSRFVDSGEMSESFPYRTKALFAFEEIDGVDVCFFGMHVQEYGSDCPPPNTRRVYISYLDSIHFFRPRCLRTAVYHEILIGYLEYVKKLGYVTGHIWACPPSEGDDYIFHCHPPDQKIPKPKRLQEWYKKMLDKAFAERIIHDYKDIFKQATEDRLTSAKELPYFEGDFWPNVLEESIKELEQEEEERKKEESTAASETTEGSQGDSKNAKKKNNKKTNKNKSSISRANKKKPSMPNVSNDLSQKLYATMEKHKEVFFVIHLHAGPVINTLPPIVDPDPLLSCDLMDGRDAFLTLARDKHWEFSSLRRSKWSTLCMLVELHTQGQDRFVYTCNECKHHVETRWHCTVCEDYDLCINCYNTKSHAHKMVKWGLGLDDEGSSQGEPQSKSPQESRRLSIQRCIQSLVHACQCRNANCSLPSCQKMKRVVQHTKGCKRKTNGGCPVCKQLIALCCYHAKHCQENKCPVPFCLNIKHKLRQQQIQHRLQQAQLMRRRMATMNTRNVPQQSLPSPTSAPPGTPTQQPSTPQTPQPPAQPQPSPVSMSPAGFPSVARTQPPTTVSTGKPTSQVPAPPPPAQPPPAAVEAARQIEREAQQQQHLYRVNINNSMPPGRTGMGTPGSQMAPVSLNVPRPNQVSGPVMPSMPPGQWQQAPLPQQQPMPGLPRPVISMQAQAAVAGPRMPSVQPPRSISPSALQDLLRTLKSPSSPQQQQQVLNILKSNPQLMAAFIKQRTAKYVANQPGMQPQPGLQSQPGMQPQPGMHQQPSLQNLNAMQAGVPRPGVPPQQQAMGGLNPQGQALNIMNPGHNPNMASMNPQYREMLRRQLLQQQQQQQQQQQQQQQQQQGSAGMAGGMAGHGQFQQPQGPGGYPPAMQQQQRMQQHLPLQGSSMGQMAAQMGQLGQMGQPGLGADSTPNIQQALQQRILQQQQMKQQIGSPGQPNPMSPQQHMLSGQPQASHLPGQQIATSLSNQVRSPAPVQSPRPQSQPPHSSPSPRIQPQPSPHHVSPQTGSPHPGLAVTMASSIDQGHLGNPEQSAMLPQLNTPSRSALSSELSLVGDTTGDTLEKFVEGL
UniProt Q16665: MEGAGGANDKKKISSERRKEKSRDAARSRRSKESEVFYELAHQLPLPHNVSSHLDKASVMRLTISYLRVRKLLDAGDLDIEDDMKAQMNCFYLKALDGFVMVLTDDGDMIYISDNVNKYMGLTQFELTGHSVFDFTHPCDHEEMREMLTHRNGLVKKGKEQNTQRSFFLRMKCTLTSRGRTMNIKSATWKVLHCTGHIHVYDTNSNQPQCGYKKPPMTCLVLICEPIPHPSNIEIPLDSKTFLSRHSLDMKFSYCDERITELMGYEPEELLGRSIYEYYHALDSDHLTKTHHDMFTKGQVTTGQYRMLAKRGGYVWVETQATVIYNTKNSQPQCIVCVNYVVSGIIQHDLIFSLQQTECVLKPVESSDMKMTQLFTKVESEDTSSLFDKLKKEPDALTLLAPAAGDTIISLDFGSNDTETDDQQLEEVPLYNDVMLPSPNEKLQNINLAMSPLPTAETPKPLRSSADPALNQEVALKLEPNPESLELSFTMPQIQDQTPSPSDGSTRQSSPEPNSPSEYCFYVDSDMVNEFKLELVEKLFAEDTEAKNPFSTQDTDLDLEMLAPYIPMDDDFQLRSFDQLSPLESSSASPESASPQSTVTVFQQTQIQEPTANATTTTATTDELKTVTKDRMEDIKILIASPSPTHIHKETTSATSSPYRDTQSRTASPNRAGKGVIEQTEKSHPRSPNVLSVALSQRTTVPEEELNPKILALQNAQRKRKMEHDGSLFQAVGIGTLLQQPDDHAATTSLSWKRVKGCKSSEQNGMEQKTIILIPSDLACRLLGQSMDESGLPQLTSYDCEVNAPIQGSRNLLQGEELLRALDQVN

The values below come from article PMC5489526.

In this test the target is CREB-binding protein (CBP) (human (endogenous in SK-N-MC)) (UniProt Q92793). Put plainly: co-IP; CBP antibody immobilised on AminoLink Plus coupling resin, incubated overnight with SK-N-MC cell lysate (IP lysis/wash buffer); cells with or without PA-BSA; eluate analysed by western blot for NF-κB p65, HIF-1α and CBP. In general terms: Immunoblotting shows a protein as a band on a membrane.

In the case of “hypoxia-inducible factor 1-alpha (HIF-1α) (from UniProt Q16665 1-826)”, the binding entry was “binds”.
